Measured values: PubChem BioAssay AID743467 (Broad Institute, 2014)
Listed are the inconclusive results; actives and inactives stand elsewhere.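 The calls were made as follows: active = compound lowering PGC-1a expression with fitted half-maximal concentration at most twice its top tested dose; inconclusive = flat curve with moderate opposite-direction effect, or poor fit; inactive = the rest.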

Test: hepatocyte PGC-1a gene expression decrease – cell-based, primary mouse hepatocytes, RT-qPCR, cherry-pick, PGC-1a acetylation activator project, dose response (AID 743467);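 also: 0% = neutral control wells median and 100% = positive control wells median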
Conditions: PGC-1a mRNA qPCR, forskolin, at 0.1 µM, top dose 26 µM, stronger effect = higher value

For `O=c1[nH]c2ccccc2n1C1CCN(C(c2ccccc2OC(F)(F)F)c2nnnn2C2CCCC2)CC1` (stereo unspecified), the max activity (PGC-1a expression decrease) was inconclusive: 117%.
